Laboratory results from PubChem BioAssay AID493014 (National Center for Advancing Translational Sciences (NCATS), 2011).
This is one part of the list. The main result of the screen is listed elsewhere. These columns were measured beside it and carry no call. Most of these compounds were active or inconclusive in the main read-out, so they are no random draw. Potencies come from curve fits of mixed quality, noted in brackets.

Assay: qHTS Assay to Find Inhibitors of Chronic Active B-Cell Receptor Signaling
Settings: ABC-DLBCL IkBa-CBG/CBR reporter, luminescence ratio (green luciferase fused to IkBa over red control in TMD8 lymphoma cells), 4 h
Procedure, shortened: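 TMD8 ABC-DLBCL cells carrying doxycycline-inducible green luciferase fused to IkappaBalpha plus unfused red luciferase were exposed to compounds (up to 46 uM) for 4 hrs at 37C. Activity came from the overlap-corrected green/red luminescence ratio.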

[1] = measured here: CBR red luminescence, cell number
[2] = measured here: IkBa-CBG green luminescence

SMILES | AC50 [1] | AC50 [2]
Clc1cccc(Nc2ncnc3c2cnn3-c2ccccc2)c1 | 20.6 µM [falling, partial curve, poor fit] | 
Cc1ccc(-c2csc3ncn(CC(=O)N4CCOCC4)c(=O)c23)cc1C | 4.61 µM [rising, single point] | 
COC(=O)C1C(c2ccc(N(C)C)cc2)C(C(=O)OC)S(=O)(=O)CS1(=O)=O (centres undefined) | 35.5 µM [rising, single point] | 
COc1ccc2cc(C3c4cc(OC)c(OC)cc4CCN3C(=O)c3ccco3)c(=O)[nH]c2c1 (centres undefined) | 7.94 µM [rising, partial curve, poor fit] | 12.6 µM [falling, partial curve]
Brc1ccccc1OCCCOc1cccc2cccnc12 | 1.41 µM [rising, partial curve] | 
COc1ccc(CSCCN)cc1Cl | 11.6 µM [rising, partial curve, poor fit] | 
Cn1cc(CNC(=O)/C=C/c2ccc(Cl)cc2)cn1 | 29.1 µM [falling, single point] | 
Cc1ccc(C)c(C(C)NC(=S)NCc2ccc(F)cc2)c1 (centres undefined) | 35.5 µM [falling, single point] | 
Clc1cccc(CSc2ncn(-c3ccccc3)n2)c1 | 23.1 µM [rising, single point] | 
N#CCC(=O)Nc1ccc(C(=O)NCCC(c2ccccc2)c2ccccc2)cc1 | 35.5 µM [falling, partial curve, poor fit] | 
CCn1nc(C(=O)OCC(=O)c2c[nH]c3ccccc23)c2ccccc2c1=O | 35.5 µM [falling, single point] | 
Cc1c(Cl)cccc1N1C(=O)c2ccccc2C1=O | 29.1 µM [rising, single point] | 
CCCOc1ccc(NC(=O)CC2C(=O)N(CC)C(=S)N2CCNC(C)=O)cc1 (centres undefined) | 29.1 µM [rising, single point] | 
Cc1cccc(C)c1NC(=S)Nc1ccc(F)cc1 | 31.6 µM [rising, single point] | 
CCOc1ccc(NC(=S)NC(=O)/C=C/c2ccc(OC)c(OC)c2)c([N+](=O)[O-])c1 | 35.5 µM [rising, single point] | 
CCOc1cc2[nH]c(=S)n(CCCCC(=O)NCc3ccco3)c(=O)c2cc1OCC | 0.92 µM [rising, full curve, poor fit] | 
Cc1cc(C)n(/N=C/c2cccs2)c(=O)c1C#N | 5.8 µM [rising, full curve] | 
Cc1nnc2ccc(-c3ccc(NS(=O)(=O)c4ccccc4[N+](=O)[O-])cc3)nn12 | 6.51 µM [rising, partial curve] | 11.6 µM [falling, partial curve]
N=c1c2c(-c3ccccc3)c(-c3ccccc3)oc2ncn1CCN1CCOCC1 | 35.5 µM [falling, single point] | 
Fc1ccc(-c2cc(-c3ccccc3)nc(-n3cccn3)n2)cc1 | 11.2 µM [falling, partial curve, poor fit] | 
O=C(Nc1cccnc1)c1sc2cccc(F)c2c1Cl | 3.16 µM [rising, partial curve] | 
COc1ccc(/C=N/NS(=O)(=O)c2ccccc2)cc1OS(=O)(=O)c1ccc(C)cc1 | 23.1 µM [falling, single point] | 

SMILES | AC50 [1] | AC50 [2]
CCOC(=O)c1c(NC(=O)c2ccco2)n(C2CCCCC2)c2nc3ccccc3nc12 | 1.58 µM [rising, partial curve, poor fit] | 
NNC(=O)[C@H](Cc1ccccc1)NC(=O)NCCc1ccccc1 | 0.562 µM [rising, full curve, poor fit] | 
Cc1cc(NC(=O)COC(=O)CCS(=O)(=O)c2ccc(C)c(C)c2)no1 | 35.5 µM [falling, partial curve, poor fit] | 
Cn1c(SCC(=O)N2CCN(Cc3ccccc3)CC2)nnc1-c1ccncc1 | 0.13 µM [rising, full curve, poor fit] | 
c1ccc(CO/N=C(\c2ccc(C3CC3)nc2)C2CC2)cc1 | 25.1 µM [rising, single point] | 
CC(C)Oc1cccc(-c2cc(C(=O)N3CCN(S(C)(=O)=O)CC3)c3ccccc3n2)c1 | 4.11 µM [rising, single point] | 
Cc1cc[n+](-c2[nH]c(=O)sc2/C=N/N=C(\[O-])CCn2c3ccccc3c3ccccc32)cc1 | 3.16 µM [rising, partial curve] | 
CCCc1cnc(N2CCN(C(=O)c3ccc(F)cc3)CC2)nc1 | 0.631 µM [rising, partial curve, poor fit] | 
O=C(NNC(=O)c1ccccc1O)c1ccc(-c2ccc([N+](=O)[O-])cc2)o1 | 20.6 µM [falling, single point] | 
Cc1ccc(CNC(=O)Cc2ccc(Br)cc2)cc1 | 3.16 µM [rising, full curve] | 
COc1ccc(/C=C2/N=C3CCCCCN3C2=O)cc1 | 2.51 µM [rising, partial curve] | 
COc1ccc(C(=O)OCC(=O)NCCN2C(=O)CSC2=O)cc1[N+](=O)[O-] | 0.00461 µM [rising, full curve, poor fit] | 
CCOc1ccccc1N=Cc1c(O)c2ccccc2oc1=O | 3.98 µM [falling, full curve] | 
O=C(/C=C/c1ccccc1Cl)N(Cc1ccc(Cl)cc1)C1CCS(=O)(=O)C1 (centres undefined) | 29.1 µM [falling, single point] | 32.6 µM [rising, partial curve, poor fit]
Cc1oc(-c2ccc(Cl)cc2)cc1-c1nn2c(-c3ccoc3C)nnc2s1 | 1.16 µM [falling, full curve] | 
Cc1cc(C)n(CC(O)Cn2c3ccccc3c3ccccc32)c(=O)n1 (centres undefined) | 10 µM [falling, partial curve, poor fit] | 
O=C(CSc1nnc(-c2ccccc2)o1)N1CCCCC1 | 12.6 µM [falling, single point] | 
CN(C)c1nc(OCCNC(=O)Nc2ccccc2)nc(N(C)C)n1 | 4.47 µM [rising, partial curve, poor fit] | 
COc1cc(-c2noc(C)c2C#Cc2nccn2C)cc(OC)c1OC | 7.08 µM [falling, full curve] | 
CCOC(=O)C1=C(C)C(c2cccc(Oc3ccccc3)c2)NC(=S)N1 (centres undefined) | 29.1 µM [falling, single point] | 
CCOc1ccc(S(=O)(=O)NCC(c2cccs2)S(=O)(=O)c2ccc(C)cc2)cc1 (centres undefined) | 0.1 µM [falling, full curve, poor fit] | 
CN(C1=C(NC(=O)c2ccc(Cl)cc2)C(=O)c2ccccc2C1=O)c1ccccc1 | 6.51 µM [falling, partial curve, poor fit] | 

Exported as tab-separated lines: 2 of the compounds above.
SMILES	AC50 [1]	AC50 [2]
Cc1ccc(C)c(C(C)NC(=S)NCc2ccc(F)cc2)c1 (centres undefined)	35.5 µM [falling, single point]	
Cc1cc(C)n(CC(O)Cn2c3ccccc3c3ccccc32)c(=O)n1 (centres undefined)	10 µM [falling, partial curve, poor fit]	

Remaining list, next part

SMILES | AC50 [1] | AC50 [2]
O=C(NCc1ccco1)C1CC(c2ccc(F)cc2)=NO1 (centres undefined) | 35.5 µM [falling, single point] | 
S=c1[nH]nc(-c2ccccc2)n1C1C=CCCC1 (centres undefined) |  | 31.6 µM [falling, single point]
CC(C)c1nnc(NC(=O)C2c3ccccc3Oc3ccccc32)s1 | 7.31 µM [falling, partial curve, poor fit] | 
CCC(=O)Nc1cccc(C(=O)/C=C/c2cc(Br)ccc2OC)c1 | 23.1 µM [falling, partial curve, poor fit] | 
CC(C)NC(=O)CSc1ncccc1-c1nc2ccccc2[nH]1 | 3.16 µM [falling, full curve, poor fit] | 
Cc1c(C(=O)Nc2ccccc2F)cnn1-c1ccccc1 | 7.08 µM [falling, partial curve] | 
CC(=O)Nc1cccc(NS(=O)(=O)c2cn(C)c(=O)n(C)c2=O)c1 | 1 µM [rising, full curve, poor fit] | 
CCC(=O)Nc1nc(C)c(-c2csc(Nc3ccccn3)n2)s1 | 12.6 µM [falling, partial curve] | 
O=C(O)c1ccc(N/N=C/c2ccc(-c3ccc(Cl)cc3Cl)o2)cc1 | 0.178 µM [falling, partial curve, poor fit] | 
COc1ccccc1NC(=O)Nc1ccc(Br)cn1 | 4.47 µM [falling, full curve, poor fit] | 
Cn1nnnc1SCCNCc1ccccc1F | 23.1 µM [falling, single point] | 
CCn1c(SCc2nc3ccccc3c(=O)[nH]2)nnc1-c1cccnc1 | 7.31 µM [rising, partial curve] | 
c1cnc2c(OCc3nc4ccccc4[nH]3)cccc2c1 |  | 2.31 µM [rising, partial curve, poor fit]
Cc1ccc2c(c1)C(O)(C1COC(C)(C)CC1=O)C(=O)N2C (centres undefined) | 31.6 µM [rising, single point] | 25.1 µM [falling, single point]
O=C(N/N=C/c1ccc2nccnc2c1)c1ccc(Br)cc1 | 6.31 µM [falling, single point] | 
N/C(=N/OC(=O)c1ccccc1Cl)c1ncc([N+](=O)[O-])s1 | 12.6 µM [falling, single point] | 12.6 µM [rising, partial curve, poor fit]
O=C(Nc1ccc(F)cc1)N1CCc2ccccc2C1 | 15.8 µM [falling, partial curve] | 
Cc1cc(NC(=O)c2cc(C(C)C)on2)no1 | 15.8 µM [falling, single point] | 
CC(/C=N/NC(=O)c1cnccn1)=C\c1ccco1 | 35.5 µM [falling, single point] | 
C/C(CC(=O)NC1CCCCC1)=N\NC(=O)c1ccccn1 | 7.08 µM [falling, partial curve] | 
